Assay results taken from publication PMC6175878, “ROS-induced R loops trigger a transcription-coupled but BRCA1/2-independent homologous recombination pathway through CSB” (Nature Communications, 2018).
The exact form of at least one protein or probe is not confirmed. At least one result comes from cells or an extract, where the contact may be indirect. For part of these data: The comparison behind a weaker result is the experiment's own reference, which may not be listed here.

Protein sequences, listed by entry. Tags and fused reporters are not part of them. Residues count along the entry.
UniProt Q03468, 1200-1493: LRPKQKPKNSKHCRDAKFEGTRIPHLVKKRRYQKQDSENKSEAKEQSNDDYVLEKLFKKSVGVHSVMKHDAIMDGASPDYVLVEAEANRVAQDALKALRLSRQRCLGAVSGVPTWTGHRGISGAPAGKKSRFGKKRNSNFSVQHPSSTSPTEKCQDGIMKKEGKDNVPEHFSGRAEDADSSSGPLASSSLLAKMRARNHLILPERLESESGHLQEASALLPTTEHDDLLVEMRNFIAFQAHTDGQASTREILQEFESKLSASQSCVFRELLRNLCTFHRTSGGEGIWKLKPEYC
UniProt Q03468, 961-1493: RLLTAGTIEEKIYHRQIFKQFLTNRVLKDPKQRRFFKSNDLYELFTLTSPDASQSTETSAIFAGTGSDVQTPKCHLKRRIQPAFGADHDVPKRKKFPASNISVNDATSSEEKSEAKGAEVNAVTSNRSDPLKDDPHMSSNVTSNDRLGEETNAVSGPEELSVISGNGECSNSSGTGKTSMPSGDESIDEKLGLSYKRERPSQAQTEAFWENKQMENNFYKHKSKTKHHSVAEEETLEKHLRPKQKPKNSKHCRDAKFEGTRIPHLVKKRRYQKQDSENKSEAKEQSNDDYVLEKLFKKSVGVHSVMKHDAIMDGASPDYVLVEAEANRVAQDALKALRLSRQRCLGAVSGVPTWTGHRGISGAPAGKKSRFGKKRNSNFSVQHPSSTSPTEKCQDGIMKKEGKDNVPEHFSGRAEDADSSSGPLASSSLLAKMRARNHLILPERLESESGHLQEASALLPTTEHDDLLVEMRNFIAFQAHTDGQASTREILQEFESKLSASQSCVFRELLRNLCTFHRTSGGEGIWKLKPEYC
UniProt Q03468, 337-509: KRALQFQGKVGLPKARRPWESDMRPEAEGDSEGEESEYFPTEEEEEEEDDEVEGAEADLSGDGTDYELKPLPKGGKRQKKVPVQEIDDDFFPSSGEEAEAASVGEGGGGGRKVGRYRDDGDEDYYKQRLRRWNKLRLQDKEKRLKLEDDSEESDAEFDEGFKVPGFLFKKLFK

What was measured:
Test in all cases: pull-down
[1] = target: GFP-CSB 1200-1493 (human) (UniProt Q03468); conditions: cell lysate; pull-down: 20 mM Tris-HCl pH 7.5, 50 mM NaCl, 2 mM MgCl2, 0.1% Tween-20, 30% glycerol; protein in a lysate after overexpression; residues …; protein details: EGFP (N-term, pEGFP-C1); label: 3' biotin on oligo 3 (RNA); DNA:RNA hybrid
GFP-CSB 961-1493 (human) = GFP-CSB 961-1493 (human) (UniProt Q03468); conditions: cell lysate; pull-down: 20 mM Tris-HCl pH 7.5, 50 mM NaCl, 2 mM MgCl2, 0.1% Tween-20, 30% glycerol; protein in a lysate after overexpression; residues 961-1493; protein details: EGFP (N-term, pEGFP-C1); label: 3' biotin on oligo 3 (RNA); DNA:RNA hybrid
[2] = target: GFP-CSB 337-509 (CSB-AD) (human) (UniProt Q03468); conditions: cell lysate, captured less efficiently than C-terminal fragments, possibly indirect; pull-down: 20 mM Tris-HCl pH 7.5, 50 mM NaCl, 2 mM MgCl2, 0.1% Tween-20, 30% glycerol; protein in a lysate after overexpression; residues 337-509; protein details: EGFP (N-term, pEGFP-C1); label: 3' biotin on oligo 3 (RNA); DNA:RNA hybrid

“UGACUAAUCGAAGUUGAUACAUCGACGUUA / TAACGTCGATGTATCAACTTCGATTAGTCA [biotin DNA:RNA hybrid oligo 3/oligo 4]”: binds [1]; binds (GFP-CSB 961-1493 (human)); binds more weakly [2].
